Article PMC12428754, “Testing Strategies for Metabolite-Mediated Neurotoxicity” (International Journal of Molecular Sciences, 2025)

Test system: LUHMES cells
Assay: MitoMet (UKN4b) neurite outgrowth assay
Assay type: cell-based
Details: Homo sapiens; benchmark response 25%, neurite area, 24 h exposure, three independent experiments; read-out: BMC25 neurite outgrowth
Method: Figure 1 (A) A strategy scheme to assess metabolite-mediated hazard in NAMs used for neurotoxicity or developmental neurotoxicity. Parent and metabolite compounds are tested separately in the respective assay. This strategy is applicable when there is prior knowledge of metabolite formation. A decision rule based on the relative toxicities (X) of the parent and metabolite may be applied to decide whether next-generation risk assessment (NGRA) should be applied to the metabolite. The value of X may be defined according to the problem formulation and the NAM used. (B) An assay scheme of the neurite outgrowth assay used here for exemplification: Proliferating LUHMES cells were replated one day before differentiation was initiated (day −1). […] Neurite outgrowth and viability were determined 24 h later, using automated high content imaging. […] In each independent experiment, the technical replicates were measured and averaged. A benchmark response (BMR) of 25% was used as specified in the detailed assay description, and the respective benchmark concentration (BMC25) was determined. […] Similar images are used for neurite quantification. […]
The MitoMet neurite outgrowth assay was performed as previously described. […] Neurite outgrowth and viability were determined 24 h later, using automated high content imaging. […]

COCC(=O)Nc1cc(Sc2ccccc2)ccc1N/C(=N\C(=O)OC)NC(=O)OC [Febantel]
IC25: 11.7 µM
